Measurements published in publication doi:10.1101/2020.01.07.896860.
These are yes or no findings as the source states them, for the method shown. In cells and extracts the contact can be indirect. Some results given as binding are weak or reduced against the parent protein; the word gives no strength.

Protein sequences, listed by entry. Tags and fused reporters are not part of them. Lines headed by an entry give the natural chain unless they say otherwise; changes in a name come on top.
UniProt Q6IAA8: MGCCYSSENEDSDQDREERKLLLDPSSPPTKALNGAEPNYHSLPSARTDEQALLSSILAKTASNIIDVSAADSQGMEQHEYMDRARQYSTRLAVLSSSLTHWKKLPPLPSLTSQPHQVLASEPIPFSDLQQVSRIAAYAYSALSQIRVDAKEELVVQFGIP
UniProt P46414: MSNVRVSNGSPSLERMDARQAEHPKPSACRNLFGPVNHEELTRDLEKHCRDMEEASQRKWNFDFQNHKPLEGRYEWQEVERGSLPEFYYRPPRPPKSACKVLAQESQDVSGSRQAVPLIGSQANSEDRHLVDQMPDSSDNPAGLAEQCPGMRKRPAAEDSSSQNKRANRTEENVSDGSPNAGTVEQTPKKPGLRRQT
UniProt Q9CQ22: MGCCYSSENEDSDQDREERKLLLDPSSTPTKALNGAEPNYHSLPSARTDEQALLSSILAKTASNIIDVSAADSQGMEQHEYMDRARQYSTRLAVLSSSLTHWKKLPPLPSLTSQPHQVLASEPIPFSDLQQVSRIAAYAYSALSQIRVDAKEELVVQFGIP
UniProt P46527: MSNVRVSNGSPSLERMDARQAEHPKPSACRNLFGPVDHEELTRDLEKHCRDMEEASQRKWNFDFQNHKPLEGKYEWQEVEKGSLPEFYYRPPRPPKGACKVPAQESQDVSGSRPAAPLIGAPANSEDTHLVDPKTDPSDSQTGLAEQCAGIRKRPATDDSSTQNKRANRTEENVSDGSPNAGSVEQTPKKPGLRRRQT
UniProt O88653: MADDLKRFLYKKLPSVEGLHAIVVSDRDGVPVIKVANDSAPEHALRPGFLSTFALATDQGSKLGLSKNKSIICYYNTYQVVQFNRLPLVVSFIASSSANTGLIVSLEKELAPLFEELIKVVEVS
UniProt Q9JHS3: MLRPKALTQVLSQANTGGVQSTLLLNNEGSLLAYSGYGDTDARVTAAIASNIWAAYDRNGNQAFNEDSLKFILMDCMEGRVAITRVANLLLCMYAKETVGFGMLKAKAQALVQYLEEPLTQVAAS

Tests used:
[1] = molecular target: tagged LAMTOR1 (Figure 4G) (UniProt Q6IAA8); experiment: co-IP
[2] = molecular target: p27 (endogenous, p27+/+ MEFs) (mouse (endogenous in MEFs)) (UniProt P46414); experiment: co-IP
[3] = molecular target: LAMTOR1 (endogenous, MEFs) (mouse (endogenous in MEFs)) (UniProt Q9CQ22); experiment: proximity ligation
[4] = molecular target: LAMTOR1 (endogenous, U251N cells) (human (endogenous in U251N)) (UniProt Q6IAA8); experiment: co-IP
[5] = molecular target: p27 (endogenous, p27+/+ MEFs) (mouse (endogenous in MEFs)) (UniProt P46414); experiment: proximity ligation
[6] = molecular target: RagC (endogenous, MEFs) (mouse (endogenous in MEFs)) (UniProt Q99K70); experiment: co-IP

Question: With p27^Kip1 (from UniProt P46527 1-198) as the substance, how does the binding [1] read?
Answer: binds

Question: With “LAMTOR3 (endogenous, MEFs) (from UniProt O88653 1-124)” as the substance, how does the binding [2] read?
Answer: no binding

Question: With “p27 (endogenous, p27+/+ MEFs) (from UniProt P46414 1-197)” as the substance, how does the binding [3] read?
Answer: binds

Question: “p27 (endogenous, U251N cells) (from UniProt P46527 1-198)” was tested. Which binding [4] did it give?
Answer: binds

Question: How did the binding [5] turn out when “LAMTOR4 (endogenous, MEFs) (from UniProt Q8CF66 1-99)” was run?
Answer: binds

Question: What about the binding [6] of the same substance?
Answer: binds

Question: And the binding [2]?
Answer: binds

Question: How did the binding [2] turn out when “LAMTOR2 (endogenous, MEFs) (from UniProt Q9JHS3 1-125)” was run?
Answer: no binding
